Data as given in PubChem BioAssay AID1224830 (NIAID, 2016).

Aim: 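Host factors that control LPS-induced TNF expression in human macrophages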 (primary screen)
Cells: human THP-1 monocytic leukaemia cells, TNF dual-luciferase reporter clone, PMA-differentiated to macrophage-like cells
Reagent: siRNA pool against human genes, 50 nM
Duration: LPS for 4 h, given about 3 days after siRNA transfection
Conditions: bacterial LPS (TLR4 ligand), 10 ng/ml
Measurement: 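TNF firefly reporter luminescence divided by renilla, normalised to the plate median, then turned into a robust z-score for each replicate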
Scale: TNF reporter robust z-score: higher = stronger TNF reporter response to LPS
Rule for the call: 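a well is active when its z-score exceeds 2.8 or falls below -1.5; control wells carry no call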
This is a random part of about 18,000 reagents. Of all reagents, about 2,900 (16%) were called active. 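Calls are made per well; low scores hint the gene aids the LPS response, high scores that it dampens it.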 Repeated entries: four replicate wells of each siRNA pool. Reagent sequences are not shown.

OR51A7 (olfactory receptor family 51 subfamily A member 7)
- TNF reporter robust z-score: 0.3
- outcome: inactive

OR51A7 (olfactory receptor family 51 subfamily A member 7)
- TNF reporter robust z-score: 0.04
- outcome: inactive

OR51A7 (olfactory receptor family 51 subfamily A member 7)
- TNF reporter robust z-score: -0.28
- outcome: inactive

OR51A7 (olfactory receptor family 51 subfamily A member 7)
- TNF reporter robust z-score: 1.06
- outcome: inactive

ADAT2 (adenosine deaminase tRNA specific 2)
- TNF reporter robust z-score: 0.3
- outcome: inactive

ADAT2 (adenosine deaminase tRNA specific 2)
- TNF reporter robust z-score: 0.27
- outcome: inactive

ADAT2 (adenosine deaminase tRNA specific 2)
- TNF reporter robust z-score: -0.11
- outcome: inactive

ADAT2 (adenosine deaminase tRNA specific 2)
- TNF reporter robust z-score: 1.33
- outcome: inactive

GPR75 (G protein-coupled receptor 75)
- TNF reporter robust z-score: -0.36
- outcome: inactive

GPR75 (G protein-coupled receptor 75)
- TNF reporter robust z-score: -0.34
- outcome: inactive

GPR75 (G protein-coupled receptor 75)
- TNF reporter robust z-score: -0.65
- outcome: inactive

GPR75 (G protein-coupled receptor 75)
- TNF reporter robust z-score: 0.82
- outcome: inactive

Laid out differently: 5 of the entries above.
gene knocked down | TNF reporter robust z-score | outcome
ADAT2 (adenosine deaminase tRNA specific 2) | 0.3 | inactive
ADAT2 (adenosine deaminase tRNA specific 2) | 0.27 | inactive
ADAT2 (adenosine deaminase tRNA specific 2) | -0.11 | inactive
ADAT2 (adenosine deaminase tRNA specific 2) | 1.33 | inactive
GPR75 (G protein-coupled receptor 75) | -0.36 | inactive

Continued.
SAMD14 (sterile alpha motif domain containing 14)
- TNF reporter robust z-score: 0.97
- outcome: inactive

SAMD14 (sterile alpha motif domain containing 14)
- TNF reporter robust z-score: 1.67
- outcome: inactive

SAMD14 (sterile alpha motif domain containing 14)
- TNF reporter robust z-score: 1.13
- outcome: inactive

SAMD14 (sterile alpha motif domain containing 14)
- TNF reporter robust z-score: 1.1
- outcome: inactive

PMAIP1 (phorbol-12-myristate-13-acetate-induced protein 1)
- TNF reporter robust z-score: -1.64
- outcome: active

PMAIP1 (phorbol-12-myristate-13-acetate-induced protein 1)
- TNF reporter robust z-score: -1.45
- outcome: inactive

PMAIP1 (phorbol-12-myristate-13-acetate-induced protein 1)
- TNF reporter robust z-score: -0.79
- outcome: inactive

PMAIP1 (phorbol-12-myristate-13-acetate-induced protein 1)
- TNF reporter robust z-score: -1.61
- outcome: active

OR5F1 (olfactory receptor family 5 subfamily F member 1)
- TNF reporter robust z-score: 1.52
- outcome: inactive

OR5F1 (olfactory receptor family 5 subfamily F member 1)
- TNF reporter robust z-score: 1.12
- outcome: inactive

OR5F1 (olfactory receptor family 5 subfamily F member 1)
- TNF reporter robust z-score: 0.29
- outcome: inactive

OR5F1 (olfactory receptor family 5 subfamily F member 1)
- TNF reporter robust z-score: 0.23
- outcome: inactive

KLF14 (KLF transcription factor 14)
- TNF reporter robust z-score: 2.3
- outcome: inactive

KLF14 (KLF transcription factor 14)
- TNF reporter robust z-score: 1.15
- outcome: inactive

KLF14 (KLF transcription factor 14)
- TNF reporter robust z-score: 2.24
- outcome: inactive

KLF14 (KLF transcription factor 14)
- TNF reporter robust z-score: 1.59
- outcome: inactive

NAA40 (N-alpha-acetyltransferase 40, NatD catalytic subunit)
- TNF reporter robust z-score: -0.88
- outcome: inactive

NAA40 (N-alpha-acetyltransferase 40, NatD catalytic subunit)
- TNF reporter robust z-score: 0.75
- outcome: inactive

NAA40 (N-alpha-acetyltransferase 40, NatD catalytic subunit)
- TNF reporter robust z-score: -0.34
- outcome: inactive

NAA40 (N-alpha-acetyltransferase 40, NatD catalytic subunit)
- TNF reporter robust z-score: -0.35
- outcome: inactive
